Laboratory results as given in US20220056075A1, “METHOD FOR TREATING OPIOID USE DISORDER” (THE ADMINISTRATORS OF THE TULANE EDUCATIONAL FUND, priority 2019, published 2022).
Where two headings read alike, the source gives them in different places.

How the values were obtained:
[1] = system: rats trained to discriminate morphine from vehicle; experiment: Drug discrimination (DD), morphine-trained rats; conditions: for ED50: Rattus norvegicus
Experimental: Drug Discrimination (DD): Rats were food deprived to approximately 85% of the weight of free feeding cohorts to establish operant responding for 45 mg food pellets (Bioserve, Frenchtown, N.J.) in standard operant chambers (MED Associates, St. Albans, Vt.). Rats were fed 10-20 g of standard food after daily DD sessions, and ˜3× the daily amount on weekends to maintain appropriate weight. DD consisted of 3 phases (Krivsky et al., 2006). In phase 1, rats were trained to lever press for food at a fixed ratio (FR) level 1 (i.e., 1 lever press=1 food pellet) using 2 levers with stimulus lights located above each lever and a food hopper between the levers during 120 min sessions. Responding on either lever extinguished the light and delivered a food pellet. […] Once >20 pellets were earned at FR9, sessions were shortened to 20 min and response requirements were set at FR10 and the left or right lever reinforced responding on alternate days. Once >20 pellets were earned on each lever at FR10, rats started phase 2 of DD training.
Only responses on the correct lever were reinforced and responses on the incorrect lever reset the response requirement on the correct lever. Criteria to move to phase 3 were as follows: >20 pellets per session, >90% injection appropriate lever responding, and <9 responses on the incorrect lever before the first food pellet reward.
Two paradigms were utilized to generate substitution curves: cumulative within-session and bolus between-session injections.
During substitution tests, both levers actively delivered food at an FR10 schedule. […] Doses were increased in ¼ log increments, with injections every 20 min followed 15 minutes later by DD sessions lasting 5 min each. […] The advantage of this procedure was that an entire dose-response was generated in one session.
Statistics: PRISM software (GraphPad, San Diego, Calif.) was used for one-way analysis of variance (ANOVA) with Newman-Keuls post-hoc comparisons to compare CPP groups, locomotor effects, hot plate, and DD response rates.

rats = conditions: data reproduced from Zadina et al. (2016); cited from earlier work

## CN1CC[C@]23c4c5ccc(O)c4O[C@H]2[C@@H](O)C=C[C@H]3[C@H]1C5.O=S(=O)(O)O [Morphine, Morphine sulfate, reference compound]
[1]; iv, read-out: ED50 (morphine-appropriate responding), bolus injections made between sessions, i.v., value (SEM)
  ED50: 0.879 mg/kg
[1]; iv, read-out: ED50 (morphine-appropriate responding), cumulative injections within a single session, i.v., value (SEM)
  ED50: 0.701 mg/kg
[1]; sc, read-out: ED50, responding on the drug-paired lever, subcutaneous injection
  ED50: 1.25 mg/kg
[1]; bolus injections made between sessions, i.v., value (SEM), sulfate
  ED50 (morphine-appropriate responding): 0.88 mg/kg
rats
  antinociceptive ED50: 1.27 mg/kg
